From US20250304658A1 come the findings set out here.

No constants are given. Whether binding was seen depends on the method and setting. A result given as binding can be weak or reduced; the word gives no strength.

The target of test [1] is BK virus VP1 protein, genotype I (BK virus). Put plainly: flow cytometry on cells transfected with genotype 1 VP1; wild type is the reference for the mutants. A general note: Flow cytometry measures light scatter and fluorescence of single cells or particles in a stream.
Test [2] shares this target. Nature of the test: flow cytometry on cells transfected with genotype 1 VP1, wild type and mutants.

B1: 6H12 (antibody, V domains shown)
VH: EVQLVESGGGLVQPGGSLRLSCAASGFTFSSYEMNWVRQAPGKGLEWVSYISSGGSSIKYADSVRGRFAFSRDNAENSVHLQMNSLRAEDTAVYYCARVGGSYYYSYAMDVWGQGTAVTVSS
VL: DIQLTQSPSFLSASVGDRVTITCWASQDISSYLAWYQQKPGKAPKLLIYAASTLQSGVPSRFTGSGSGTEFTLTISSLQPEDFATYYCQQPHNSPFSFGPGTKVDVK
On to B1, for which the binding entry in test [1] is listed as “binds”.

B2: 11D12 (antibody, V domains shown)
VH: EVQLVESGGGLVQPGGSLRLSCAASGFTFSSYEMNWVRQAPGKGLEWVSYISSGGSSIKYADSVRGRFTFSRDNAENSVFLQMNSLRGEDTAVYYCARVGGSYYYSYAMDVWGQGTAVTVSS
VL: DIQLTQSPSFLSASVGDRVTITCWASQDISSYLAWYQQKPGKAPKLLIYAASTLQSGVPSRFSGSGSGTEFTLTISSLQPEDFATYYCQQPNNYPFSFGPGTKVDVK
Consider B2, for which the binding entry in test [1] is on record as “binds”.

B3: 2F7 (antibody, V domains shown)
VH: QVQLVESGGGLVKPGGSLRLSCVASGFTFSDYYMNWIRLPPGRGLQWISYIDSSAGAIYYADSVKGRFTVSRDDAKNSLYLQMNSLRADDTAVYYCARERRDGHKIFDWWGQGTLVTVSS
VL: DIVMTQSPDSLAVSLGERATINCKSSQNILYTSNNKNYLGWYQQKAGQPPKLLIYWSSTRNSGVPDRFSGSGSGTDFTLTISSLQAEDVAVYYCHQYYSSPYTFGQGTNLEIK
Regarding B3, in test [1], the binding entry is reported as “binds”.

B4: 8A11 (antibody, V domains shown)
VH: QVQLVESGGDLVKPGGSLRLSCVASGFTFSDYYMNWIRLPPGKGLEWISYIDSSAGATYYADSVKGRFTVSRDDAKNSLFLHMNSLRAEDTAVYYCARERRSGHKIFDCWGPGTLVTVSS
VL: DIVMTQSPDSLAVSLGERATINCKSSQNILYSSNNKNYLAWYQQKAGQPPKLLIFWSSTRESGVPDRFSGSGSGTDFTLTISSLQAEDVAVYYCQQYYSSPYNFGRGTTLEIK
In the case of B4, in test [1], the binding entry is reported as “binds”.

B5: 1H10 (antibody, V domains shown)
VH: QVHLVESGGDLVKPGGSLRLSCVASGFTFSDYYMNWIRMPPGKGLEWISYIDSSAGAIYYADSVKGRFTVSRDDAKNSLFLHMNNLRADDTAVYYCARERRDGHKIFDCWGPGTLVTVSS
VL: DIVMTQSPDSLAVSLGERATINCKSSQNILYSSNNKNYLAWYQQKAGQPPKLLIFWSSTRESGVPDRFSGSGSGTDFTLTISSLQAEDVAVYYCQQYYSSPYNFGRGTTLEIK
As for B5, in test [1], the binding entry is “binds”.

B6: 1E2 (antibody, V domains shown)
VH: QVQLVESGGDLVKPGGSLRLSCVASGFTFSDYYMNWIRLPPGKGLEWVSYIDSSAGAIYYADSVRGRFTVSRDDAKNSLFLHMNSLRADDTAVYYCARERRDGHKIFDCWGPGTLVTVSS
VL: DIVMTQSPDSLAVSLGERATINCKSSQNILYSSNNKNYLAWYQQKAGQPPKLLIFWSSTRESGVPDRFSGSGSGTDFTLTINSLQAEDVAVYYCQQYYSSPYNFGRGTTLEIK
In the case of B6, the binding result in test [1] is “binds”.

B7: 4F7 (antibody, V domains shown)
VH: QVQLVESGGDLVKPGGSLRLSCVASGFTFSDYYMNWIRLPPGKGLEWISYIDSSAGAIYYADSVKGRFTVSRDDAKNSLFLHMNNLRADDTAVYYCARERRDGHKIFDCWGPGTLVTVSS
VL: DIVMTQSPDSLAVSLGERATINCKSSQNILYSSNNKNYLAWYQQKAGQPPKLLIFWSSTRESGVPDRFSGSGSGTDFTLTISSLQAEDVAVYYCQQYYSSPYNFGRGTTLEIK
With B7, the binding entry in test [1] is “binds”.

B8: 2H1 (antibody, V domains shown)
VH: QVQLVESGGDLVKPGGSLRLSCVASGFTFSDYYMNWIRLPPGKGLEWISYIDSSAGAIYYADSVKGRFTVSRDDAKNSLFLHMNSLRADDTAVYYCARERRDGHKIFDCWGPGTLVTVSS
VL: DIVMTQSPDSLAVSLGERATINCKSSQNILYSSNNKNYLAWYQQKTGQPPKLLIFWSSTRESGVPDRFSGSGSGTDFTLTISSLQAEDVAVYYCQQYYSSPYNFGRGTTLEIK
As to B8, the binding entry in test [1] is “binds”.

B9: 7A4 (antibody, V domains shown)
VH: QVQLVESGGDLVKPGGSLRLSCVASGFTFSDYYMNWIRLPPGKGLEWISYIDSSAGAIYYADSVKGRFTVSRDDAKNSLFLHMNSLRADDTAVYYCVRERRDGHKIFDYWGPGTLVTVSS
VL: DIVMTQSPDSLAVSLGERATINCKSSQNILYSSNNKNYLAWYQQKAGQPPKLLIFWSSIRESGVPDRFSGSGSGTDFTLTISSLQAEDVAVYYCQQYYSSPYNFGRGTTLEIK
Consider B9, for which the binding entry in test [1] is on record as “binds”.

B10: 8D10 (antibody, V domains shown)
VH: QVHLVESGGDLVKPGGSLRLSCVASGFTFSDYYMNWIRLPPGKGLEWISYIDSSAGAIYYADSVKGRFTVSRDDAKNSMFLHMNSLRADDTAVYYCARERRDGHKIFDYWGPGTLVTVSS
VL: DIVMTQSPDSLAVSLGERATINCKSSQNILYSSNNKNYLAWYQQKAGQPPKLLIFWSSTRESGVPDRFSGSGSGTDFTLTISSLQAEDVAVYYCQQYYSSPYNFGRGTTLEIK
As for B10, the binding result in test [1] was “binds”.

B11: 5A8 (antibody, V domains shown)
VH: QVQLVESGGDLVKPGGSLRLSCVASGFTFSDYYMNWIRLPPGRGLEWISYIDSSAGAIYYADSVKGRFTVSRDDAKKSLFLYMNSLRADDTAVYYCARERRDGHKIFDYWGPGTLVTVSS
VL: DIVMTQSPDSLAVSLGERATINCKSSQNILYSSNNKNYLAWYQQKAGQPPKLLIFWSSTRESGVPDRFSGSGSGTDFTLTISSLQAEDVAVYYCHQYYSSPYNFGRGTTLEIK
Turning to B11, the binding entry in test [1] is recorded as “binds”.

B12: 9B4 (antibody, V domains shown)
VH: QVQLVESGGDLVKPGGSLRLSCVASGFTFSDYYMNWIRLPPGKGLEWISYIDSSAGAIYYADSVKGRFTVSRDDAKNSLFLHMNSLRADDTAVYYCARERREGHKIFDFWGPGTLVTVSS
VL: DIVMTQSPDSLALSLGERATINCKSSQNILYSSNNKNYLACYQQKAGQPPKLLIFWSSTRESGVPDRFSGSGSGTDFTLTISSLQAEDVAVYYCQQYYSSPYNFGRGTTLEIK
As for B12, the binding entry in test [1] is on record as “binds”.

B13: 7H8 (antibody, V domains shown)
VH: EVQLLESGGGLVQPGGSLRLSCAASGFAFHTYDMTWVRQAPGKGLEWVSGVVGSGINTYYADSVKGRFTISRDNSKSTLYLQMNSLRAEDTAVYYCAKDSSSWFSLHYWGQGTLVTVSS
VL: DIQMTQSPSTLSASVGDRVTITCRASQSISNWLAWYQQKPGKAPKLLIYKASSLESGVPSRFSGSGSGTDFTLTISSLQPDDFASYYCQQYRSYAYTFGQGTKLEIT
As for B13, in test [1], the binding result is reported as “binds”.

B14: 2B9 (antibody, V domains shown)
VH: EVQLLESGGGLAQPGKSLRLSCAASGFTFSGFAMSWVRQAPGKGLEWVSGISGSGDITYYADSVKGRFTISRDNSKSTLYLQMNSLGAEDTAVYYCAKDPYNWNHGVYGMDVWGQGTTVTVSS
VL: DIQMTQSPSSLSASVGDRVTITCRASQSISSYLNWYQQKPGKAPKFLIYGASSLQSGVPSRFSGSGSGTDFTLTISSLQPEDFAAYYCQQSFNAPLTFGGGTKVEIK
On to B14, for which the binding result in test [2] is “binds”.

B15: 14F5 (antibody, V domains shown)
VH: EVQLLESGGGLVQPGGSLRLSCAVSGFTFSSFAMSWVRQAPGKGLEWVSGISASGGTTNYADSVKGRFTISRDNSKNTLYLQMSSLRAEDTAEYYCAKDRFLEWVEGFDPWGQGILVTVSP
VL: DIQMTQSPSSLSASVGDRVTITCRASQSIGRFLIWYQQKPGKAPKLLLYATSSLQSGVPARFTGSGSGTDFTLTIGSLQPEDFATYYCQQSYITPLTFGGGTKVEIK
For the molecule B15, the binding result in test [1] is recorded as “binds”.

B16: 9G9 (antibody, V domains shown)
VH: EVQLLESGGGLVQPGGSLRLSCAASGFTFHNYAMSWVRQAPGKGLEWVSGISGSGGTAYYADSVKGRFTISRDNSKNTLYLQMNSLRADDTALYYCAKDRFLEWVEGFDSWGQGTLVTVSS
VL: DIQMTQSPSSLSASVGDRVTITCRASQSIGSFLIWYQQKPGKAPKLLIYAASSLQSGVPSRFSGSGSGTDFTLIISSLQPEDFATYYCQQSYNTPLTFGGGTKVEIK
With B16, the binding result in test [1] was “binds”.

B17: 15C10 (antibody, V domains shown)
VH: EVQLLESGGGLVQPGGSLRLSCAASGFTFSSFAMSWVRQAPGKGLEWVSGISASGGTTNYADSVKGRFTISRDNSKNTLYLQMSSLRAEDTAEYYCAKDRFLEWVEGFDPWGQGILVTVSP
VL: DIQMTQSPSSLSASVGDRVTITCRASQSIGRFLIWYQQKPGKAPKLLLYATSSLQSGVPARFTGSGSGTDFTLTIGSLQPEDFATYYCQQSYITPLTFGGGTKVEIK
As to B17, in test [1], the binding result is “binds”.
